This is an account of results in patent US7786122B2.

The structures appear in SMILES notation. Structures were worked out from names or drawings and are uncertain.

The test addresses γ-secretase (Homo sapiens, UniProt P49768). Nature of the test: In vitro assay based on the inhibition of Aβ formation from membrane preparations. The following applies: read-out: ACTIVITY RATING (activity based on IC50 values). An excerpt: In Vitro Assay to Identify γ-Secretase Inhibitor Based on the Inhibition of Aβ Formation from Membrane Preparations.
An isolated membrane fraction which contains functionally active γ-secretase and β-APP substrates can generate γ-secretase cleavage products including Aβ (Roberts, S. B.; Hendrick, J. P.; Vinitsky, A.; Lewis, M.; Smith, D. W.; Pak, R. PCT Publication WO 01/0175435; Fechteler, K.; Kostka, M.; Fuchs, M. Patent Application No. DE 99-19941039; Shearman, M.; Beher, D. et al., Biochemistry, 2000, 39, 8698-8704; Zhang, L. Song, L. et al., Biochemistry 2001, 40, 5049-5055). […] The Aβ present in a homogeneous sample containing membranes can be detected by time-resolved fluorescence with two antibodies that recognize different epitopes of Aβ. […] A lack of fluorescence is indicative of the absence of cleavage products, resulting from inhibition of γ-secretase. […]
A typical membrane-based assay requires 45 μg membrane protein per well in a 96- or 384-well format. […] Incubation of the membranes with the test agent will continue for approximately 90 minutes at which time fluorescence labeled antibodies are added to each well for Aβ quantitation. […] Results are obtained by analysis of the plate in a fluorescence plate reader and comparison to the mock treated membranes and samples in which known amounts of Aβ were added to construct a standard concentration curve. […]

As a reminder, the IC50 is the midpoint of a concentration-inhibition curve.

In the case of `CC(C)CC(C(N)=O)N(CCCCCCn1ccnc1)S(=O)(=O)c1ccc(Cl)cc1` (centres unmarked), the IC50 was < 50 nM. Regarding `COc1ccc(CN(C(CC(C)C)C(N)=O)S(=O)(=O)c2ccc(F)cc2)cc1F` (centres unmarked), the IC50 was < 50 nM.
